# Experimental data published in the supplement of paper PMC4604168 (melanoma cell lines).
# The list shows a part of the results. Many values rest on one well or one pass, so single values are uncertain.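 The apoptosis fraction was the count of cleaved-PARP antibody-stained nuclei relative to all DNA-stained nuclei, imaged in 1,536-well plates. Screening doses were set so most cells survived, and baseline and induced cleaved-PARP levels vary greatly across cell lines.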
# System: WM3526
# Assay: cleaved PARP positive nuclei fraction relative to DMSO control; melanoma cells; higher = more apoptosis
# Conditions: library dose: low library concentration; 72 h
row,SMILES,cleaved PARP positive nuclei fraction [%]
1,"C[C@@H](N)c1ccc(C(=O)Nc2ccnc3[nH]ccc23)cc1 + Cc1cc([N+](=O)[O-])ccc1NS(=O)(=O)c1cc(Cl)ccc1Cl [FH535] (first compound 0.4 µM, partner dose 1 µM)",63.4
2,"CS(=O)(=O)c1ccc(C(=O)Nc2ccc(Cl)c(-c3ccccn3)c2)c(Cl)c1 [vismodegib] + O=S(=O)(c1ccccc1)N(CC(F)(F)F)c1ccc(C(O)(C(F)(F)F)C(F)(F)F)cc1 [T0901317] (first compound 1 µM, partner dose 1.4 µM)",54.7
3,"CCN(CC)CCNC(=O)c1c(C)[nH]c(/C=C2\C(=O)Nc3ccc(F)cc32)c1C [sunitinib] + COc1cc(N2CCC(N3CCN(C)CC3)CC2)ccc1Nc1ncc(Cl)c(Nc2ccccc2S(=O)(=O)C(C)C)n1 [NVP-TAE684] (first compound 0.4 µM, partner dose 0.08 µM)",140
4,"CC1(C)CCC(c2ccc(Cl)cc2)=C(CN2CCN(c3ccc(C(=O)NS(=O)(=O)c4ccc(N[C@H](CCN5CCOCC5)CSc5ccccc5)c(S(=O)(=O)C(F)(F)F)c4)cc3)CC2)C1 + CC(C)CCN1c2nc(Nc3cc(F)c(O)c(F)c3)ncc2N(C)C(=O)C1C [BID1870] (first compound 0.4 µM, partner dose 0.2 µM)",102
5,"C[C@@H](N)c1ccc(C(=O)Nc2ccnc3[nH]ccc23)cc1 + CN(NC(=O)CC(=O)NN(C)C(=S)c1ccccc1)C(=S)c1ccccc1 [STA4783] (first compound 0.4 µM, partner dose 0.006 µM)",50.6
6,"NC1(c2ccc(-c3nc4ccn5c(=O)[nH]nc5c4cc3-c3ccccc3)cc2)CCC1 + COc1cc(N2CCC(N3CCN(C)CC3)CC2)ccc1Nc1ncc(Cl)c(Nc2ccccc2S(=O)(=O)C(C)C)n1 [NVP-TAE684] (first compound 0.4 µM, partner dose 0.08 µM)",191
7,"NC(=O)c1ccc(N(C(N)=O)c2c(F)cccc2F)nc1-c1ccc(F)cc1F + CCCCCCCCCCCC1=C(O)C(=O)C=C(O)C1=O [Embelin] (first compound 0.4 µM, partner dose 1.2 µM)",81.2
8,"CS(=O)(=O)c1ccc(C(=O)Nc2ccc(Cl)c(-c3ccccn3)c2)c(Cl)c1 [vismodegib] + NCC(=O)Nc1ccc(-n2nc(C(F)(F)F)cc2-c2ccc3c(ccc4ccccc43)c2)cc1 [OSU03012] (first compound 1 µM, partner dose 1 µM)",97.2
9,"NC1(c2ccc(-c3nc4ccn5c(=O)[nH]nc5c4cc3-c3ccccc3)cc2)CCC1 + O=S(=O)(c1ccccc1)N(CC(F)(F)F)c1ccc(C(O)(C(F)(F)F)C(F)(F)F)cc1 [T0901317] (first compound 0.4 µM, partner dose 1.4 µM)",526
10,"NC(=O)c1ccc(N(C(N)=O)c2c(F)cccc2F)nc1-c1ccc(F)cc1F + CC(C)(C)c1cnc(CSc2cnc(NC(=O)C3CCNCC3)s2)o1 [SNS-032] (first compound 0.4 µM, partner dose 0.01 µM)",53.5
11,"NC(=O)c1ccc(N(C(N)=O)c2c(F)cccc2F)nc1-c1ccc(F)cc1F + CO[C@@H]1[C@H](N(C)C(=O)c2ccccc2)C[C@H]2O[C@]1(C)n1c3ccccc3c3c4c(c5c6ccccc6n2c5c31)C(=O)NC4 [Midostaurin] (first compound 0.4 µM, partner dose 0.08 µM)",40.1
12,"Cn1cnc2c(F)c(Nc3ccc(Br)cc3Cl)c(C(=O)NOCCO)cc21 [selumetinib] + COc1cc2c(Oc3ccc4[nH]c(C)cc4c3F)ncnc2cc1OCCCN1CCCC1 [cediranib] (first compound 0.015 µM, partner dose 0.4 µM)",82.1
13,"C[C@]1(O)C[C@@H](c2nc(-c3ccc4ccc(-c5ccccc5)nc4c3)c3c(N)nccn32)C1 + c1cc(-c2cnn3cc(-c4ccc(OCCN5CCCCC5)cc4)cnc23)ccn1 [Dorsomorphin] (first compound 0.4 µM, partner dose 0.4 µM)",165
14,"CC1(C)CCC(c2ccc(Cl)cc2)=C(CN2CCN(c3ccc(C(=O)NS(=O)(=O)c4ccc(N[C@H](CCN5CCOCC5)CSc5ccccc5)c(S(=O)(=O)C(F)(F)F)c4)cc3)CC2)C1 + NCC(=O)Nc1ccc(-n2nc(C(F)(F)F)cc2-c2ccc3c(ccc4ccccc43)c2)cc1 [OSU03012] (first compound 0.4 µM, partner dose 1 µM)",345
15,"CN(c1ncccc1CNc1nc(Nc2ccc3c(c2)CC(=O)N3)ncc1C(F)(F)F)S(C)(=O)=O + O=C(O)c1ccc(-c2c[nH]c3ncc(-c4ccccc4)cc23)cc1C1CCCC1 [GSK650394] (first compound 0.08 µM, partner dose 0.16 µM)",55.6
16,"NC(=O)c1ccc(N(C(N)=O)c2c(F)cccc2F)nc1-c1ccc(F)cc1F + COc1ccc(-c2ccc3c(N4CCOCC4)nc(N4C[C@@H](C)O[C@@H](C)C4)nc3n2)cc1CO [KU0063794] (first compound 0.4 µM, partner dose 0.02 µM)",52.7
17,"NC1(c2ccc(-c3nc4ccn5c(=O)[nH]nc5c4cc3-c3ccccc3)cc2)CCC1 + CCCCCCCCCCCC1=C(O)C(=O)C=C(O)C1=O [Embelin] (first compound 0.4 µM, partner dose 1.2 µM)",209
18,"NC(=O)c1ccc(N(C(N)=O)c2c(F)cccc2F)nc1-c1ccc(F)cc1F + CC1(C)NC(=O)N(c2ccc([N+](=O)[O-])c(C(F)(F)F)c2)C1=O [nilutamide] (first compound 0.4 µM, partner dose 1 µM)",80.3
19,"COc1ccc(C2=N[C@@H](c3ccc(Cl)cc3)[C@@H](c3ccc(Cl)cc3)N2C(=O)N2CCNC(=O)C2)c(OC(C)C)c1 [Nutlin-3] + Cn1cncc1[C@@](N)(c1ccc(Cl)cc1)c1ccc2c(c1)c(-c1cccc(Cl)c1)cc(=O)n2C [tipifarnib] (first compound 0.1 µM, partner dose 0.01 µM)",125
20,"CN(c1ncccc1CNc1nc(Nc2ccc3c(c2)CC(=O)N3)ncc1C(F)(F)F)S(C)(=O)=O + Cc1cc([N+](=O)[O-])ccc1NS(=O)(=O)c1cc(Cl)ccc1Cl [FH535] (first compound 0.08 µM, partner dose 1 µM)",183
21,"CC(=O)O[C@@]12CO[C@@H]1C[C@H](O)[C@@]1(C)C(=O)[C@H](O)C3=C(C)[C@@H](OC(=O)[C@H](O)[C@@H](NC(=O)OC(C)(C)C)c4ccccc4)C[C@@](O)([C@@H](OC(=O)c4ccccc4)[C@H]21)C3(C)C [Docetaxel] + N#Cc1c(O)c2c(-c3ccc(-c4ccccc4O)cc3)csc2[nH]c1=O [A769662] (first compound 0.0001 µM, partner dose 2 µM)",167
22,"CC(=O)O[C@@]12CO[C@@H]1C[C@H](O)[C@@]1(C)C(=O)[C@H](O)C3=C(C)[C@@H](OC(=O)[C@H](O)[C@@H](NC(=O)OC(C)(C)C)c4ccccc4)C[C@@](O)([C@@H](OC(=O)c4ccccc4)[C@H]21)C3(C)C [Docetaxel] + COc1ccc2c(c1)CCC1C2CCC2(C)C(NCCCCCCN3C(=O)C=CC3=O)CCC12 [U73122] (first compound 0.0001 µM, partner dose 0.4 µM)",209
23,"CN(c1ncccc1CNc1nc(Nc2ccc3c(c2)CC(=O)N3)ncc1C(F)(F)F)S(C)(=O)=O + COc1cc(N2CCC(N3CCN(C)CC3)CC2)ccc1Nc1ncc(Cl)c(Nc2ccccc2S(=O)(=O)C(C)C)n1 [NVP-TAE684] (first compound 0.08 µM, partner dose 0.08 µM)",74.4
24,"NC(=O)c1ccc(N(C(N)=O)c2c(F)cccc2F)nc1-c1ccc(F)cc1F + O=C(O)c1ccc(-c2c[nH]c3ncc(-c4ccccc4)cc23)cc1C1CCCC1 [GSK650394] (first compound 0.4 µM, partner dose 0.16 µM)",129
25,"C[C@@H](N)c1ccc(C(=O)Nc2ccnc3[nH]ccc23)cc1 + Cc1cc(N2CCOCC2)cc2[nH]c(-c3c(NC[C@@H](O)c4cccc(Cl)c4)cc[nH]c3=O)nc12 [BMS536924] (first compound 0.4 µM, partner dose 0.2 µM)",105
26,"CC(=O)O[C@@]12CO[C@@H]1C[C@H](O)[C@@]1(C)C(=O)[C@H](O)C3=C(C)[C@@H](OC(=O)[C@H](O)[C@@H](NC(=O)OC(C)(C)C)c4ccccc4)C[C@@](O)([C@@H](OC(=O)c4ccccc4)[C@H]21)C3(C)C [Docetaxel] + COc1ccc(-c2ccc3c(N4CCOCC4)nc(N4C[C@@H](C)O[C@@H](C)C4)nc3n2)cc1CO [KU0063794] (first compound 0.0001 µM, partner dose 0.02 µM)",383
27,"CCCCCCCCc1ccc(CCC(N)(CO)CO)cc1 [fingolimod] + Cc1cc([N+](=O)[O-])ccc1NS(=O)(=O)c1cc(Cl)ccc1Cl [FH535] (first compound 2 µM, partner dose 1 µM)",242
28,"CCCCCCCCc1ccc(CCC(N)(CO)CO)cc1 [fingolimod] + Cn1cc(/C=C2\C(=O)Nc3cccnc32)c2ccccc21 [GW441756] (first compound 2 µM, partner dose 0.4 µM)",82.3
29,"Cn1cnc2c(F)c(Nc3ccc(Br)cc3Cl)c(C(=O)NOCCO)cc21 [selumetinib] + O=C(Nc1ccccc1)c1cc([N+](=O)[O-])ccc1Cl [GW9662] (first compound 0.015 µM, partner dose 2 µM)",129

# A different layout for some results above:
row	SMILES	cleaved PARP positive nuclei fraction [%]
14	CC1(C)CCC(c2ccc(Cl)cc2)=C(CN2CCN(c3ccc(C(=O)NS(=O)(=O)c4ccc(N[C@H](CCN5CCOCC5)CSc5ccccc5)c(S(=O)(=O)C(F)(F)F)c4)cc3)CC2)C1 + NCC(=O)Nc1ccc(-n2nc(C(F)(F)F)cc2-c2ccc3c(ccc4ccccc43)c2)cc1 [OSU03012] (first compound 0.4 µM, partner dose 1 µM)	345
15	CN(c1ncccc1CNc1nc(Nc2ccc3c(c2)CC(=O)N3)ncc1C(F)(F)F)S(C)(=O)=O + O=C(O)c1ccc(-c2c[nH]c3ncc(-c4ccccc4)cc23)cc1C1CCCC1 [GSK650394] (first compound 0.08 µM, partner dose 0.16 µM)	55.6
